From article PMC7819943, “Rice protein-binding microarrays: a tool to detect cis-acting elements near promoter regions in rice”
Some of the results follow.

Each sequence was assayed against T1, OsSMF1 (Oryza sativa, UniProt Q6ZLB0 1-436) (assay: protein-binding microarray (RPBM); PBS, 2% BSA, 51.3 ng/ul salmon testes DNA, 50 uM zinc acetate, 200 nM TF, 25 C, 1 h; high values mean tight binding). Details: protein: recombinant; tags: N-terminal polyhistidine and DsRed monomer fusion (pET32a); chain copies: 2; label: CyDye5-dUTP incorporated in the synthesized complementary strand; 3' TTTTT single-stranded linker to array surface; dsDNA, one strand shown.
T1 sequence: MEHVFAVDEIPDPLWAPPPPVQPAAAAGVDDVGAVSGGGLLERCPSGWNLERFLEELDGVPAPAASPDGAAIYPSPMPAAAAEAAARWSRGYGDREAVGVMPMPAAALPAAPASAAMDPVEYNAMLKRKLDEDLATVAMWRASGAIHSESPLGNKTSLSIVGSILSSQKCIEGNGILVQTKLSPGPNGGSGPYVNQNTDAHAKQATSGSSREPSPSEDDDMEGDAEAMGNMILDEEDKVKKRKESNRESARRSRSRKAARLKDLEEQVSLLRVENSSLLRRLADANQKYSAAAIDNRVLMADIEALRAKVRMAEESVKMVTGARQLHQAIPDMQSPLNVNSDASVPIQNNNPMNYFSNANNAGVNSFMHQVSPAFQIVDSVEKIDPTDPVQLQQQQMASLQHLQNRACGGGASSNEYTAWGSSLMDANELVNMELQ
Procedure, shortened: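 Using Ni–NTA, transcription factors fused N-terminally to polyhistidine and DsRed were purified after expression in E. coli BL21-CodonPlus. These were incubated at 200 nM with a blocked, double-stranded custom Agilent array for 1 h at 25 °C in a buffer containing 50 µM zinc acetate, and the array was washed. The binding signal is per-feature fluorescence intensity (arbitrary units) on an Axon 4000B scanner.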

Sequence | binding signal
CACTCCATCCGTTATTATAACCGTGTATAACAACTTCCTTCGGAGTCACCTAGTGCAG | 14000 fluorescence intensity (a.u.)
GACGTTGCGTGTCTAGTGTTGTGTGCGTGTGCATCTACCACGGAGTCACCTAGTGCAG | 8650 fluorescence intensity (a.u.)
AATTGTTGACTGAACTACCACGTAGGACCAAAACCGCTCTCGGAGTCACCTAGTGCAG | 5020 fluorescence intensity (a.u.)
CCCGTTGCATCAGCCGTGACGCACTACCCGACTCCCGTGGCGGAGTCACCTAGTGCAG | 4350 fluorescence intensity (a.u.)
TGGTTGGTTTGACGCTACACGGTTGGTGTGCAGGTCTGCGCGGAGTCACCTAGTGCAG | 3420 fluorescence intensity (a.u.)
AGTAGTATAGGGGAGAGGGTGGGCGGGTGATCGCTGGGCGCGGAGTCACCTAGTGCAG | 3140 fluorescence intensity (a.u.)
GAAGAAACTAATGATATATACGCAGATATTGTTAATAATGCGGAGTCACCTAGTGCAG | 34500 fluorescence intensity (a.u.)
ACGAGTCGTGACATGAATCGCAGGTGGCAATAACCTCCTCCGGAGTCACCTAGTGCAG | 4450 fluorescence intensity (a.u.)
CCAATCCTCTTCTCCATCCTATAAGACCCATTCTTCTTCTCGGAGTCACCTAGTGCAG | 3550 fluorescence intensity (a.u.)
CACGTGATCATAGATAGGATCTCACAGACCTGCTGATACTCGGAGTCACCTAGTGCAG | 3440 fluorescence intensity (a.u.)
CACCCAGGTTCCGTGACTTGGTGGACTCTTGTCACGTGCTCGGAGTCACCTAGTGCAG | 4740 fluorescence intensity (a.u.)
TCTACATCATGTTATCCGCGTCACATTACTAAAATCATAACGGAGTCACCTAGTGCAG | 5280 fluorescence intensity (a.u.)
CTGGCCTGCCAGCTGAGAAACTTTGGTATTTTAGTCATGCCGGAGTCACCTAGTGCAG | 3150 fluorescence intensity (a.u.)
AAAAGTCAATGGCGTCATACATTAAAATATGAAGGGAGTACGGAGTCACCTAGTGCAG | 4170 fluorescence intensity (a.u.)
AGCGGCCGCCGATTACCCGAAGAACGTCACCTACCGCACTCGGAGTCACCTAGTGCAG | 4560 fluorescence intensity (a.u.)
GGAGGCCTAGGTGGTGGTGGTGGTCTTGGTGGAGGAGGGGCGGAGTCACCTAGTGCAG | 5410 fluorescence intensity (a.u.)
TTAAGTGTAGTCATGAGTTTTCGTGTTCAACGTTTGACTGCGGAGTCACCTAGTGCAG | 3580 fluorescence intensity (a.u.)
TCACTTCTTGTTATCAATTATGACATGTCACATATGTATACGGAGTCACCTAGTGCAG | 5680 fluorescence intensity (a.u.)
TCCCGCAATGGCGCGACCACAGCTACCCACGTCGGACGCCCGGAGTCACCTAGTGCAG | 18200 fluorescence intensity (a.u.)
TCTCCTCCGGCCCCACACGTCAGACGCACCCACCATCTGTCGGAGTCACCTAGTGCAG | 9210 fluorescence intensity (a.u.)
TCCACCGTCTGCTACTGCTAGCGTGCTACTGTCTCGCTGACGGAGTCACCTAGTGCAG | 3350 fluorescence intensity (a.u.)

Sequence | binding signal
GTTCGAGAACCCGTCCACGTTCATCCCAAGCATATGCATCCGGAGTCACCTAGTGCAG | 3900 fluorescence intensity (a.u.)
GTTTCTGGTTAAGACAATATAGCGTGCAGTCTCTATGTAACGGAGTCACCTAGTGCAG | 3180 fluorescence intensity (a.u.)
ACATCTGCTAGTCTATACTAGAATCCATTCTGACACTTGTCGGAGTCACCTAGTGCAG | 3770 fluorescence intensity (a.u.)
TCGCCTCAGCTTCCTGCACCGACTACTAATACTTGATATTCGGAGTCACCTAGTGCAG | 3460 fluorescence intensity (a.u.)
ATGCTCGCCACGTCCGGATCCATCAACCACGTCTCCTCCACGGAGTCACCTAGTGCAG | 9390 fluorescence intensity (a.u.)
CTATGTGATGCTGTAGTAAACATGTACTAATTACGGATTACGGAGTCACCTAGTGCAG | 8160 fluorescence intensity (a.u.)
AAGAAAGAGATGATGACGTGGCGTCCTGACATATGGGGCCCGGAGTCACCTAGTGCAG | 32700 fluorescence intensity (a.u.)
TTTGAAGCACAAGGATCGTACCGTGGCAGAGTATCTTCATCGGAGTCACCTAGTGCAG | 4000 fluorescence intensity (a.u.)
GCCGTTCCTCCACGCCGCCGACGACGTCGCCTCCCTCCGTCGGAGTCACCTAGTGCAG | 3450 fluorescence intensity (a.u.)
ATGTTTGATTTAGATTATTAAGCAGATTATTATTGCAAACCGGAGTCACCTAGTGCAG | 5070 fluorescence intensity (a.u.)
CTGGTAGTGCATATACATACTTCACACGTCTAAATCCATGCGGAGTCACCTAGTGCAG | 3940 fluorescence intensity (a.u.)
GCCACAACAGTTTGGCTGATGTTTGGTTAATACGTGAGTTCGGAGTCACCTAGTGCAG | 32500 fluorescence intensity (a.u.)
CCATTATTATAAAGTTTAAATTTGTATTTAAATAAATTTTCGGAGTCACCTAGTGCAG | 3330 fluorescence intensity (a.u.)
ATAAATATGTACACGTCGTTGTAGTGGCTCTGTGCTCGCTCGGAGTCACCTAGTGCAG | 4670 fluorescence intensity (a.u.)
CGCCCCACGCGCGCGGTCCACTCCACCATCCCTTCCTCGTCGGAGTCACCTAGTGCAG | 3170 fluorescence intensity (a.u.)
AAGGGATTTTGGGTGGATGTGACACATCCTAGTACTACGACGGAGTCACCTAGTGCAG | 5240 fluorescence intensity (a.u.)
TACGAAAGTCCAAAAGATACCTGGTTACAGCTGGGTAGATCGGAGTCACCTAGTGCAG | 3400 fluorescence intensity (a.u.)
ATTCATCTCTCTCCATTTCCAATCCATCTCATCACCGACGCGGAGTCACCTAGTGCAG | 3640 fluorescence intensity (a.u.)
ATAGGGTGAGAAAGCACCTCGTTTTCCACGCGCACGCTTCCGGAGTCACCTAGTGCAG | 3330 fluorescence intensity (a.u.)
GAACATATCACATGCTCATATCAAAATTTATAATATTAAACGGAGTCACCTAGTGCAG | 35200 fluorescence intensity (a.u.)
ACGCCGTTCGCTCATCCCAGGTGGGACGAGTTCATCCGCCCGGAGTCACCTAGTGCAG | 6840 fluorescence intensity (a.u.)

2 entries from above, with tabs:
Sequence	binding signal
AGTAGTATAGGGGAGAGGGTGGGCGGGTGATCGCTGGGCGCGGAGTCACCTAGTGCAG	3140 fluorescence intensity (a.u.)
TTAAGTGTAGTCATGAGTTTTCGTGTTCAACGTTTGACTGCGGAGTCACCTAGTGCAG	3580 fluorescence intensity (a.u.)
